The campaign covered roughly 390,000 compounds. About 910 (0.23%) were called active. The shares of active, inactive and inconclusive entries below differ from those in the screen. The call rests on the fitted dose curve; in most records, active means well fitted inhibition curve with a large enough effect; inconclusive means small, poorly fitted or top-dose-only effect; inactive means no such curve, though single readings can be large or run the other way. Potencies of inconclusive entries are doubtful fits and often do not repeat.
biological target: Ubiquitin carboxyl-terminal hydrolase 1 (Homo sapiens) (UniProt O94782); test: Inhibitors of USP1/UAF1: Primary Screen; settings: recombinant USP1/UAF1, Ub-Rhodamine cleavage fluorescence; series mostly up to 57.1 µM; further: nearly all actives have a fitted effect of over 60% in size
Summary of the method: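 Step one: compound is pinned into 1nM USP1/UAF1 in HEPES pH 7.8 buffer with TCEP. Step two: 15 min room-temperature incubation. Step three: Ub-Rho (150nM final) starts cleavage, tracked by fluorescence over six one-minute reads.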
Potency means the concentration at half of the fitted maximal effect.

Chains of the proteins cited; added tags and fusions are not shown. Lines headed by an entry give the natural chain unless they say otherwise; changes in a name come on top.
UniProt O94782: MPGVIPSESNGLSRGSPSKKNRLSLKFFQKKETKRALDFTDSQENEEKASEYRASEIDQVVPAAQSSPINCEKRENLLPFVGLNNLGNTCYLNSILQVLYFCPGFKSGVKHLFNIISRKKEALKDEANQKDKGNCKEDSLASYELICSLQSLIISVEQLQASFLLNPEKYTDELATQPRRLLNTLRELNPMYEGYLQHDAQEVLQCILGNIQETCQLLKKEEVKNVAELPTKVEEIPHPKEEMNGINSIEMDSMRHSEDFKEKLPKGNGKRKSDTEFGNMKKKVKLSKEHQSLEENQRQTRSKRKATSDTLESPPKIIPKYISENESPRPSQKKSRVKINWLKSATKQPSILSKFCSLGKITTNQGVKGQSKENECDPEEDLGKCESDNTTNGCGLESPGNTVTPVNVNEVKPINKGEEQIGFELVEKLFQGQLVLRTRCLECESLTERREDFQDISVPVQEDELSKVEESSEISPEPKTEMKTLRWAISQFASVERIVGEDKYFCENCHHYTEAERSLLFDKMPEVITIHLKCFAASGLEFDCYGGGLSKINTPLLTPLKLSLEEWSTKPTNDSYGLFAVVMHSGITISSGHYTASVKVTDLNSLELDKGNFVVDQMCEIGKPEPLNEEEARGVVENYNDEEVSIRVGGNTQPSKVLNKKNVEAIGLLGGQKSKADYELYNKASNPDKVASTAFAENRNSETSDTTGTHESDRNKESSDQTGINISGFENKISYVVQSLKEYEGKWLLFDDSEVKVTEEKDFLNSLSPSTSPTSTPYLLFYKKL

Potency, inconclusive:
O=C(c1ccccc1)c1ccc(Cn2cc(-c3ccccc3)nn2)cc1 2.24 µM [inhibitor, full curve, poor fit], COc1ccc(NCc2ccc3c(c2)OCO3)cc1Cl 31.6 µM [inhibitor, single point], COc1ccc2nc(-n3c(O)c(C4=c5ccccc5=NC4=O)[nH]c3=S)sc2c1 28.2 µM [inhibitor, partial curve], CCOC(=O)C1=C(CSc2nc3c(cc2C#N)CN(C)CC3)OC(N)=C(C#N)C1c1ccncc1 (stereo not drawn) 39.8 µM [inhibitor, partial curve, poor fit], Cc1cccc(C(=O)Nc2c(C(=O)N(C)C)cnn2-c2ccccc2)c1 35.5 µM [inhibitor, single point], Cc1ccc(COC(=O)c2[nH]c3c(c2C)C(=O)CC(c2ccc(Cl)cc2)C3)cc1 (stereo not drawn) 5.62 µM [inhibitor, partial curve], COc1ccc(CN2[C@@H](CC(=O)O)c3ccccc3S2(=O)=O)cc1 44.7 µM [inhibitor, partial curve, poor fit], Cc1nnc(SCC(=O)c2c(N)n(C)c(=O)n(C)c2=O)n1Cc1ccccc1 11.2 µM [inhibitor, single point], CC(C)c1ccc(S(=O)(=O)c2nnn3c2nc(N2CCCCC2)c2sccc23)cc1 0.1 µM [inhibitor, full curve], CCOc1ccc(S(=O)(=O)NCCC(=O)OCC(=O)c2ccc[nH]2)cc1 50.1 µM [inhibitor, partial curve], COc1cc(NC(=O)c2ccccc2)c(OC)cc1NC(=O)CN1C(=O)NC2(CCCCC2C)C1=O (stereo not drawn) 35.5 µM [inhibitor, partial curve, poor fit], CCCCC#Cc1ccc2c(c1)COc1c3ccccc3nn1-2 2 µM [inhibitor, full curve], COc1ccc(NC(=O)CC2C(=O)N(c3cccc(C)c3)C(=O)N2C2CCCCC2)cc1 (stereo not drawn) 14.1 µM [inhibitor, partial curve, poor fit], Cc1cccc(N2CCN(C(=O)c3cn(CC(C)C)c(=O)c4c3c3ccccc3n4C)CC2)c1C 8.91 µM [inhibitor, partial curve], Cc1ccc(NC(=O)Cn2c(=O)oc3cc(S(=O)(=O)N4CCC(C)CC4)ccc32)cc1C 1.58 µM [inhibitor, full curve, poor fit], CCCCN(C)CCCNC(=O)c1cc(-c2ccc(Br)s2)nc2ccccc12 31.6 µM [inhibitor, single point], O=C1CSC(=S)N1N=Cc1c(F)cccc1Cl 2.82 µM [inhibitor, full curve], Cc1cccc2nc(CSc3ccc(Cl)cc3)cn12 0.398 µM [inhibitor, full curve, poor fit], CN(Cc1ccccc1)S(=O)(=O)c1cc(Br)cc2c1N(C(=O)C1CC1)CC2 0.282 µM [inhibitor, full curve, poor fit], Cc1cccc(N2CCN(C(=O)Nc3cn(CC(C)C)c(=O)c4ccccc34)CC2)c1C 44.7 µM [inhibitor, partial curve, poor fit], COc1ccc(/C=C/C(=O)Nc2sc3c(c2C(=O)NCc2cccnc2)CCCC3)cc1 44.7 µM [inhibitor, partial curve, poor fit], O=c1[nH]cc(N2CCCCCC2)c(=O)[nH]1 1 µM [inhibitor, full curve, poor fit], CCOc1ccccc1CNC(=O)C1CCN(c2nn3cc(-c4ccc(F)cc4)nc3s2)CC1 1.78 µM [inhibitor, full curve], O=C(CNC(=O)c1ccccc1Br)N/N=C\c1cc([N+](=O)[O-])cc(Br)c1O 14.1 µM [inhibitor, partial curve, poor fit], C(=Cc1c[nH]c2ccccc12)c1nccc2ccccc12 35.5 µM [inhibitor, single point], Cc1nn(-c2ccccc2)c2c1N(CC(=O)N1CCN(c3cccc(Cl)c3)CC1)C(=O)CS2 44.7 µM [inhibitor, partial curve, poor fit], COc1ccc(Cn2c(=O)c3oc4ccccc4c3n(Cc3cccc(C(F)(F)F)c3)c2=O)cc1 0.891 µM [inhibitor, full curve, poor fit], CCOc1ccccc1NC(=O)CNC(=O)c1nn(-c2ccc(OC)c(OC)c2)c(=O)c2ccccc12 11.2 µM [inhibitor, partial curve, poor fit], COCC(C)Nc1ccc(S(=O)(=O)N2CCCC2)cc1[N+](=O)[O-] (stereo not drawn) 0.398 µM [inhibitor, full curve, poor fit], C=CCn1sc(=N)c(C#N)c1N 31.6 µM [inhibitor, single point], CCN(CC)c1cc2c(cc1F)c(=O)c(S(=O)(=O)c1ccc(OC)cc1)cn2CC 15.8 µM [inhibitor, partial curve, poor fit], O=[N+]([O-])c1c(Nc2ccc(O)cc2)cc(Cl)c2nonc12 39.8 µM [inhibitor, partial curve], CCCC[n+]1ccn(C2=C([O-])c3ccccc3C(=O)/C2=N\S(=O)(=O)c2ccc(Cl)cc2)c1 35.5 µM [inhibitor, partial curve], N#Cc1ccccc1Cn1cc(/C=C/[N+](=O)[O-])c2ccccc21 39.8 µM [inhibitor, partial curve], CCOC(=O)CCCCCC(=O)Nc1ccc2c(c1)C(=O)N([C@@H](C)CO)C[C@@H](C)[C@H](CN(C)C(=O)Nc1ccccc1)OCCCC[C@H](C)O2 0.282 µM [inhibitor, full curve], CCC(C)NC(=O)c1ccc2c(c1)N(Cc1ccccc1)C(=O)c1ccccc1S2 (stereo not drawn) 25.1 µM [inhibitor, single point], COC/C=C/C1=CC2=CC(=O)C(C)(OC(=O)c3cnc4ccccc4n3)C(=O)C2=CN1CC(C)C (stereo not drawn) 25.1 µM [inhibitor, single point], CC1C(c2ccccc2)OCCN1C(=S)Nc1ccc(S(=O)(=O)N2CCCCC2)cc1 (stereo not drawn) 0.282 µM [inhibitor, full curve], COc1ccc(-c2c3c(=O)n(C)c(=O)n(C)c3c3c(C)nc4ccccc4n23)cc1 25.1 µM [inhibitor, partial curve], CCOCCCNC(=O)C(NC(=O)Cc1cccs1)c1ccc(Cl)cc1 (stereo not drawn) 5.01 µM [inhibitor, partial curve], CC(C)(C)c1ccc(-c2nc(SCCCOc3ccccc3)n3[nH]c(=O)cc3n2)cc1 35.5 µM [inhibitor, partial curve, poor fit], Cc1cc(NC(=O)c2cccc(N3C(=O)CCC3=O)c2)no1 31.6 µM [inhibitor, partial curve], CCOC(=O)Cn1nc(-c2ccccc2)c(-c2ccccc2)nc1=O 0.251 µM [inhibitor, full curve, poor fit], CSc1ccc(/C=C/C(=O)c2ccc(O)cc2)cc1 2.24 µM [inhibitor, single point], C[C@@H]1CN([C@@H](C)CO)C(=O)c2cc(NC(=O)Nc3ccccc3)ccc2O[C@@H](C)CCCCO[C@H]1CN(C)C(=O)Nc1ccc(C(F)(F)F)cc1 0.282 µM [inhibitor, full curve]

Potency, inactive:
CCOC(=O)c1cc(S(=O)(=O)N2CCN(c3ccccc3OC)CC2)[nH]n1, Cc1oc(/N=C/c2ccccc2O)c(C#N)c1C, CCN(CC)c1ccc(/C=N/N2CCN(c3ccccn3)CC2)cc1, O=C(OCC(=O)N1CCCC1=O)c1nc(Cl)c(Cl)c(Cl)c1Cl, Cc1ccc(-c2noc(CNC(=O)c3ccc(Br)o3)n2)cc1, CCOC(=O)CN1C(=O)NC(C)(c2ccc(OC(F)F)cc2)C1=O (stereo not drawn), CC(C)c1ccc(CN(Cc2ccco2)c2cnc(S(C)(=O)=O)nc2C(=O)Nc2ccc(F)cc2)cc1, O=P(OC1CCCCC1)(OC1CCCCC1)C(Nc1ccccc1)c1cccnc1 (stereo not drawn), N#Cc1c(N)nc(N2CCCC2)c(C#N)c1-c1ccc(Cl)cc1, COc1ccccc1C1CC(=O)Oc2cc(C)cc(C)c21 (stereo not drawn), CCCNS(=O)(=O)c1cccc2cccnc12, CCCCN(C)C(=O)C1CCCN(c2ncnc3onc(C)c23)C1 (stereo not drawn), COCC(C)n1c(SCC(=O)N2CCCCC2)nc2ccccc2c1=O (stereo not drawn), CCOC(=O)c1ccccc1NC(=O)N(C(C)C)C1CCN(C(C)=O)CC1, Oc1ccc(N=Nc2ccccc2)cc1, Cc1ccc2[nH]c(O)c(N=NC(=O)CCc3ccccc3)c2c1Br

Potency, active:
CCN(CC)C(=O)Cn1c(C)c(/C=C/c2cc[n+](C)cc2)c2ccccc21 25.1 µM, N=C1/C(=C\c2coc3ccccc3c2=O)C(=O)N=C2SC(c3ccncc3)=NN12 28.2 µM

Source: PubChem BioAssay AID743255 (National Center for Advancing Translational Sciences (NCATS), 2014)
